Laboratory results taken from patent publication US20140377219A1, “HIV INHIBITORS” (New york Blood Center, Inc., priority 2011, published 2014).
At least one structure is not confirmed: it was looked up by name or label, or the drawing left a doubt. Some of these results come from one statement about several compounds together.

Assays:
[1] = test system: pNL4-3 gp41 (36G) V38E, N42S (fusion resistant isolate); format: cell-based, HIV-1; conditions: subtype B, MT-2, X4, fusion resistant isolate, read-out: IC50 (μM) ± S.D., inhibitory activity on infection
[2] = test system: laboratory-adapted HIV-1 IIIB strain; conditions: multi-cycle assay
[3] = test system: CD4-independent mutant virus (ADA N197S); format: cell-based; conditions: ADA N197S in Cf2Th-CCR5+ target cells

| SMILES | no inhibition of infection by the CD4-independent virus at concentrations up to [3] [µM] | further results |
| --- | --- | --- |
| Cc1nc(C(NC(=O)C(=O)Nc2ccc(Cl)c(F)c2)C2CCCCN2)sc1CO (stereo not shown) [Compound 27, N^1-(4-chloro-3-fluorophenyl)-N^2-((5-(hydroxymethyl)-4-methylthiazol-2-yl)(piperidin-2-yl)methyl)oxalamide.2HCl] | – | IC50 [1]: 4.5 ± 0.7 µM |
| Cc1nc(C(NC(=O)C(=O)Nc2ccc(F)cc2)C2CCCCN2)sc1CCO.Cl (stereo not shown) [Compound 36, N^1-(4-fluorophenyl)-N^2-((5-(2-hydroxyethyl)-4-methylthiazol-2-yl)(piperidin-2-yl)methyl)oxalamide.HCl] | – | MT-2 Cells IC50 (μM ± SD) [2]: 21. 6 ± 3.5 μM |
| CC1(C)CC(NC(=O)C(=O)Nc2ccc(Cl)cc2)CC(C)(C)N1 [NBD-556, reference compound] | > 118 | – |
| CC1(C)CC(NC(=O)C(=O)Nc2ccc(Br)cc2)CC(C)(C)N1 [NBD-557] | > 118 | – |
